# Source: PubChem BioAssay AID651640 (Broad Institute, 2012)
# About 6,000 (1.7%) of roughly 350,000 compounds were called active. The shares of active, inactive and inconclusive entries below differ from those in the screen. Cut-off read from the data, not from the text of the source: active = CPE inhibition above about 20% (passing the limit was not always enough); inconclusive = no clear call, values can overlap the other calls; tested in BHK-21 cells.
# Assay: protection of cells from dengue 2 killing – plate reader, single concentration, primary screen (AID 651640);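 note: 0% = median of neutral control wells and 100% = median of positive control wells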
# Conditions: DENV2-infected cells, cytopathic effect rescue, at 9.99 µM, active compounds read high
row,SMILES,CPE inhibition
1,O=C(C1CC1)N1C[C@@H]2[C@H](c3ccccc31)[C@@H](CO)N2C(=O)c1cccc(F)c1,inconclusive: 27.8%
2,C[C@H]1CN([C@@H](C)CO)C(=O)Cc2cc(NC(=O)Nc3ccc4c(c3)OCO4)ccc2O[C@@H]1CN(C)CC1CC1,inactive: -3.92%
3,Cc1noc(C)c1S(=O)(=O)Nc1ccc2c(c1)CC(=O)N([C@@H](C)CO)C[C@H](C)[C@H](CN(C)Cc1ccc(C(=O)Nc3ccccc3N)cc1)O2,active: 61.3%
4,CCS(=O)(=O)c1ccc2oc(SCC(=O)c3c(N)n(C4CC4)c(=O)[nH]c3=O)nc2c1,inconclusive: 39.9%
5,Cc1ccc(C(=O)N/C(=C/c2ccco2)C(=O)NCCc2c[nH]c3ccccc23)cc1,inactive: 2.7%
6,O=C1OCCC1Sc1nnc(-c2ccccc2Cl)n1Cc1ccccc1 (centres undefined),inconclusive: 30.8%
7,CCCCNC(=O)c1cn(CC)c2cc(N3CCN(C)CC3)c(F)cc2c1=O,inconclusive: 32.7%
8,O=C(C1CC1)N1CC[C@H]2[C@H](CO)Nc3ccc(Br)cc3[C@H]21,active: 27%
9,O=C(C[C@@H]1C=C[C@@H](NC(=O)c2cccc(F)c2)[C@H](CO)O1)NCc1ccc(Oc2ccccc2)cc1,inactive: -7.36%
10,COC(=O)c1cn(CCC#N)nc1-c1ccc2ccccc2c1,inconclusive: 36.2%
11,COc1cccc(S(=O)(=O)Nc2ccc3c(c2)[C@H]2C[C@H](CC(=O)NCc4ccccc4F)O[C@@H](CO)[C@H]2O3)c1,inconclusive: 53.7%
12,CCNC(=O)C1(C)CCN(C(=O)c2cccnc2SC)C1 (centres undefined),inconclusive: 46.5%
13,Cc1cc(NS(=O)(=O)c2ccc(NC(=O)C(C)Oc3ccc(C(C)C)cc3)cc2)no1 (centres undefined),inconclusive: 21.4%
14,CC(C)NC(=O)Nc1ccc2c(c1)C(=O)N([C@@H](C)CO)C[C@@H](C)[C@@H](CN(C)C(=O)c1ccncc1)OCCCC[C@H](C)O2,inactive: -1.3%
15,OCCN1CCN(c2ncnc3c2ncn3[C@H]2CN(Cc3ccccc3)C[C@@H](CO)O2)CC1,inconclusive: 47.3%
16,Nc1ncnc2c1ncn2[C@@H]1O[C@H](C(=O)N[C@@H](CCc2ccccc2)C(=O)N2CCN(C(=O)C(F)(F)F)CC2)[C@@H](O)[C@H]1O,inactive: -6.75%
17,O=C1CCc2cc(S(=O)(=O)Nc3cccc(F)c3)cc3c2N1CC3,inconclusive: 44.5%
18,Cc1nc2ccc3nc(NC(=O)C4COc5ccccc5O4)sc3c2s1 (centres undefined),inconclusive: 54.6%
19,C[C@@H]1CN([C@@H](C)CO)C(=O)c2cccc(NC(=O)Nc3ccccc3)c2O[C@H]1CN(C)Cc1ccc(C(=O)O)cc1,inconclusive: 22.7%

# Taken from above.
# CCS(=O)(=O)c1ccc2oc(SCC(=O)c3c(N)n(C4CC4)c(=O)[nH]c3=O)nc2c1 | CPE inhibition: inconclusive: 39.9%
# CCNC(=O)C1(C)CCN(C(=O)c2cccnc2SC)C1 (centres undefined) | CPE inhibition: inconclusive: 46.5%
